# The whole screen tested about 52,000 sequences, of which about 210 (0.4%) were called active.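 How the source made its calls: active means gene whose silencing raises cell survival under the drug, median off-target-corrected z-score across its silencing RNAs 2 or more; inactive means the rest.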 Some of the results follow.
# Experiment: Resistance to Poly (ADP-Ribose) Polymerase inhibitor: Gene Identification via Genome-wide siRNA Screen
# Details: mouse BRCA2 R2336H ES cells, olaparib, CellTiter-Glo viability; active compounds read high
# Method in brief: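 Mouse BRCA2 R2336H ES cells were reverse-transfected with siRNA (20 nM final), treated at 48 h with 500 nM olaparib, and read by CellTiter-Glo after 72 h. Scores: MAD-based z per siRNA, median per gene, seed off-target correction.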
row,Sequence,z-score
1,GGUAAUCACACUCAGUGUCTT against 1810043G02Rik,inactive: 0.16
2,GCAAAAGGGAUUCCUCGAUTT against Zdhhc14,inactive: -0.241
3,GGAACAAGCAAGUCAAACATT against Olfr770,inactive: 0.134
4,GGUUUUUGCCAGUAAUAACTT against B4galt4,inactive: 0.665
5,GCAGCUAAGGUAUCUUCAUTT against 9930021J03Rik,inactive: -0.811
6,GGGUGAGGAGACAGAAUUCTT against Dnajc5,inactive: -0.0109
7,GGAUUAUUCAAGGACUUUGTT against Bmf,inactive: -0.000445
8,GGCCAAACUUAAUCAACCUTT against D3Wsu161e,inactive: 0.582
9,GCUACUCAGUCAUUGAGCCTT against Tatdn2,inactive: -1.19
10,GGAGCUAUGAUGGCGAUUUTT against 4930403J22Rik,inactive: -2.38
11,GCAACAUUGAUUCUAGGAUTT against Olfr1391,inactive: 0.698
12,GGCAGUUAACACUUAAUGATT against Foxp2,inactive: 1.04
13,CAAUCCUCAACGAUUACAUTT against Ncor1,inactive: 1.9
14,GGUGCAUGUCUUCAUCCACTT against Rnase12,inactive: -0.41
15,GGCCAUUUAAUUUCAUGGCTT against 2810030E01Rik,inactive: 1.18
16,GGUGUUUUGUGAAUUGAAATT against Leprotl1,inactive: 0.828
17,GCAAGUGAAAUCCAAACAGTT against 5830411E10Rik,inactive: -0.89
18,GGUGGAUUUUUUGUUGAUCTT against Nat5,inactive: -0.684
19,GGCCGAAGCCCAGAAACAATT against Itih4,inactive: -2.02
20,GGUACUUCCUCAUUUACCUTT against Zdhhc4,inactive: -0.978
21,GCCAAGUGCUACAACAUCCTT against Ifitm5,inactive: -0.201
22,GGAAUUUGCCAAUGACUUCTT against Cygb,inactive: 0.738

# Reformatted with tabs: part of the list above
row	Sequence	z-score
18	GGUGGAUUUUUUGUUGAUCTT against Nat5	inactive: -0.684
19	GGCCGAAGCCCAGAAACAATT against Itih4	inactive: -2.02
20	GGUACUUCCUCAUUUACCUTT against Zdhhc4	inactive: -0.978

# Carrying on:

row,Sequence,z-score
1,CCUACUCUACAACAUGGAATT against Alox15,inactive: -0.158
2,GCACAUUUUAGCCUAAUGGTT against Tpm3,inactive: 0.0454
3,GGGAUAGCAAGACUUUCACTT against C5r1,inactive: -0.0492
4,GGCCGAGAGUAUUUCUACATT against Efna5,inactive: -1.46
5,GGGUAUUCUUGCUUUAGCUTT against C330049O21Rik,inactive: -0.735
6,GGGUUUCUUCCCUGAGCUATT against Nxf7,inactive: -2.83
7,GUGUCUCUGUAGUUGUUACTT against Olfr494,inactive: 1.55
8,GCAGCGUAUGCUAAUAUAATT against Cln3,inactive: 0.219
9,GGUAAUCCUGACUUCGUGGTT against Asb17,inactive: 1.28
10,CCAAUUGGUAUCAAGCAAUTT against 2610207I16Rik,inactive: 0.778
11,GGCAGCUUUCCUAUUGAAUTT against Tex19,inactive: -0.164
12,GGAUGGACAACUGAAGUCATT against Dnajb10,inactive: 0.694
13,GGAGCUAACUGUCAAUGGATT against Dub1,inactive: 0.805
14,GGAACCUAAAACACUAAACTT against 4932415D10Rik,inactive: 0.294
15,GGAUUUUGAAGAUGCUUGUTT against Mak10,inactive: -0.812
16,CCCAAAAAAAUCGUACUGUTT against Rbx1,inactive: 0.821
17,CGCGUGCAUUAAUGCCUCUTT against 1700095H12,inactive: 1.15
18,GGAAGAAUUGAACCACAGGTT against Papolg,inactive: 0.756
19,GGAAUUGACCAAGACAUAUTT against Mep1b,inactive: -0.665
20,CCUAUUUUAACCUUACGUGTT against Bdh,inactive: 0.262
21,GGGUGCCAAACACCUCAGUTT against Igfbp2,inactive: -0.907
22,GCCAAUGUAACCUUCAAAATT against Lypla1,inactive: 0.603

row,Sequence,z-score
1,GGAGCGAUGUAGUUGCUUGTT against Olig1,inactive: 1.4
2,CCGAGUUUGGCUAUAAAGGTT against Tufm,inactive: -0.409
3,GGGACCCAAACAUUGAAGCTT against Fez1,inactive: -0.0683
4,GCUACAGCACAUGGGAUUCTT against 5730411O18Rik,inactive: -0.284
5,CCUAAGUCCAAUCACACCUTT against Olfr1076,inactive: 0.764
6,GGCGAGAAGAGGUGAAUCATT against Nrbp,inactive: -1.61
7,CCCAAACUGAAUUAAGCAGTT against Spata7,inactive: 0.129
8,GCUAUGAAUCAGAAUGAAGTT against B230209C24Rik,inactive: -0.756
9,GGAUUCUUCAUUUCUAGUGTT against C1qtnf6,inactive: 0.239
10,GGCCAAGCUGAAGAAAAUGTT against 6330500D04Rik,inactive: -2.27
11,GGAUGUUGCUGUCGAUACATT against Kcnq3,inactive: 1.06
12,GGGCUUUUACUCCUACCUGTT against BC042513,inactive: -0.798
13,GGAUGACAGUGUGAUUGUGTT against Zfpn1a4,inactive: -1.28
14,GGAGAUGCUGGACUGCUUUTT against Htr1b,active: -0.751
15,GGCAUGUUCAUGUUCACUATT against BC004853,inactive: 1.58
16,GGAGAAGGUUCACUCUGAUTT against Traf1,inactive: -2.85
17,GGCAACUUUUAACUAACUUTT against Gbp2,inactive: -0.223
18,CGACCUACCUUUAAGCUUGTT against MGC79224,inactive: 0.723
19,CCUAACUUCACUUGAUAUGTT against 5730407K14Rik,inactive: -0.113
20,GGAGGUGAUCUGUACCGGATT against Nek4,inactive: 1.95
21,GGAUAACCUCGUCUUCAACTT against 5031404N07,inactive: 0.692
22,GGACAUACAGUGAUGAGGCTT against D6Ertd32e,inactive: 0.699

# Single entries from the entries so far:
# In z-score, CCAAUUGGUAUCAAGCAAUTT against 2610207I16Rik has inactive: 0.778
# In z-score, CGACCUACCUUUAAGCUUGTT against MGC79224 has inactive: 0.723

# — PubChem BioAssay AID1347423 (Functional Genomics Laboratory (NCATS/FGL), 2020)
